In test [1] the test system is MILI (PIWIL2) piRISC loaded with piRNA #1 (26 nt). The test is described as follows: pre-steady-state target cleavage rate (min^-1); higher = faster piRNA-guided slicing of the target. Particulars: guide: piRNA #1 5'p-UGAGGUAGUAGGUUGUAUAGUAUCCA; auxiliary factor: 500 nM mouse GTSF1. Put shortly: (§1)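 For Cleave-'n-Seq, a transcribed, DNA-blocked target RNA library […] met 1 nM active affinity-purified piRISC with one synthetic guide at 33 °C for 0–8 or 0–960 min in HEPES–potassium acetate buffer, with or without 500 nM GTSF1 partner protein. Uncleaved targets were sequenced and normalised to depth and weakly complementary targets, with three trials pooled and k3 capped at 0.0001 min^-1. A burst-and-steady-state fit supplied the pre-steady-state cleavage rate.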

In test [2] the test system is EfPiwi piRISC loaded with piRNA #1 (26 nt). Description: pre-steady-state target cleavage rate (min^-1); guide: piRNA #1 5'p-UGAGGUAGUAGGUUGUAUAGUAUCCA; MIWI and MILI are mouse PIWI proteins and EfPiwi is from a freshwater sponge; tags in brackets are library labels; higher = faster piRNA-guided slicing of the target. Particulars: auxiliary factor: 500 nM Ephydatia muelleri Gtsf1. Put shortly: as §1

Consider 58 sequences from the supplement of paper PMC10338343.

± gives the standard deviation. The entries are a selection whose mix differs from that of the whole data set. Many entries were measured with a wide error.

“GGAGACCUAACUAUACAACCUACUAGGAGA [g6:g21:cont:t1A]”: the “pre-steady-state target cleavage rate” value in test [1] was found to be 0.00403 ± 0.0045; in test [2] it was 0.00242 ± 0.0058.

Regarding GGAGACCUAUGAUAUGUAGCUUCUACCUCA, the results for the “pre-steady-state target cleavage rate” value in test [1] and in test [2] were 0.00011 ± 0.027 and 0.000149 ± 0.018, respectively.

GGAGACCUAACUAUACAACCUACACCUCA: the “pre-steady-state target cleavage rate” value in test [1] amounted to 0.00118 ± 0.011; in test [2], 0.00156 ± 0.0059.

As for GGAGAGGAUACUAUACAUCCUAGUACCUCA, the “pre-steady-state target cleavage rate” value in test [1] stood at 0.00265 ± 0.0048; in test [2], 0.00177 ± 0.0022.

GGAGACGAUACUAUACAACCUUCUACCUCA: the “pre-steady-state target cleavage rate” value in test [1] is 0.0098 ± 0.0026; in test [2], 0.00729 ± 0.0029.

Regarding GGAGACGAUACUAUAGAACCUACAACCUCA, the figures for the “pre-steady-state target cleavage rate” value in test [1] and in test [2] were 0.0115 ± 0.0039 and 0.00192 ± 0.0022, respectively.

In the case of GGAGACCUAUGAUAACUACCUACAACCUCA, the “pre-steady-state target cleavage rate” value was 0.00217 ± 0.0027 in test [1] and 0.000228 ± 0.014 in test [2].

As for GGAGACCAUACUAUAGAACCUAGUACCUCA, the “pre-steady-state target cleavage rate” value in test [1] was 0.000396 ± 0.0075; in test [2] it was 0.00118 ± 0.0056.

“GGAGACGAUACUAUACAACCUACUAGGAGA [g6:g24:cont:t1A]”: the “pre-steady-state target cleavage rate” value in test [1] came to 0.00281 ± 0.0038; in test [2], 0.00317 ± 0.0021.

As to GGAGUGGAUACAAUUCAACCUACUACCUCA, the “pre-steady-state target cleavage rate” value in test [1] came to 0.178 ± 0.0092; in test [2] it was 0.00367 ± 0.0038.

As for GGAGUGGAAACUAUACAACCUACUUCCUCA, the “pre-steady-state target cleavage rate” value in test [1] was 0.00207 ± 0.0039; in test [2], 0.00164 ± 0.0032.

For the sequence GGAGAGGAUUCUAUACAACCUACUACCACA, the “pre-steady-state target cleavage rate” value in test [1] came out at 0.113 ± 0.011; in test [2], 0.00156 ± 0.0022.

For GGAGACCUAUGAUAAGAACCUACUACCUGA, the “pre-steady-state target cleavage rate” value in test [1] stood at 0.000108 ± 0.027; in test [2], 0.000109 ± 0.024.

Consider GGAGAGGAUACUAUACAACCUACUUCGUCA, for which the “pre-steady-state target cleavage rate” value turned out to be 0.000698 ± 0.0074 in test [1] and 0.00697 ± 0.0031 in test [2].

As to GGAGUGGAUACUAUACAACCUACUACCUCCA, the “pre-steady-state target cleavage rate” value was determined as 0.223 ± 0.011 in test [1] and 0.274 ± 0.077 in test [2].

Take GGAGACGAUACUAUACAUGGUACUACCUCA: the “pre-steady-state target cleavage rate” value was 0.00601 ± 0.0019 in test [1] and 0.00229 ± 0.0031 in test [2].

In the case of GGAGACCUAUGAUAUGUUGCUACUUCCACA, the “pre-steady-state target cleavage rate” value was less than 0.0001 in test [1] and 0.00021 ± 0.012 in test [2].

As to GGAGACCUAUGAUAACAACCUCACUACCUCA, the “pre-steady-state target cleavage rate” value came out at 0.00312 ± 0.0032 in test [1] and 0.000191 ± 0.014 in test [2].

On to GGAGACCUUACUAUAGAACCUACAACCUCA, for which the “pre-steady-state target cleavage rate” value in test [1] worked out at 0.00259 ± 0.0028; in test [2], 0.000503 ± 0.006.

As for GGAGACCUAACUAUACAACCUUGUACCUCA, the figures for the “pre-steady-state target cleavage rate” value in test [1] and in test [2] were 0.000616 ± 0.021 and 0.0014 ± 0.0058, respectively.

In the case of GGAGACCUUACUAUUCAACCUACUACCUGA, the “pre-steady-state target cleavage rate” value was 0.0942 ± 0.014 in test [1] and 0.00271 ± 0.0042 in test [2].

As for “GGAGAGGAUACUAUACAACCUACUACCUCG [g2:g25:cont:t1G]”, the “pre-steady-state target cleavage rate” value in test [1] amounted to 0.175 ± 0.015; in test [2] it was 0.143 ± 0.048.

As to GGAGACCUAUCUAUACAACCUACUACCUA, the “pre-steady-state target cleavage rate” value in test [1] was found to be 0.0666 ± 0.0086; in test [2], 0.00487 ± 0.0042.

Take GGAGACCUAUGAUAAGAACCUACAACCUCA: the “pre-steady-state target cleavage rate” value in test [1] came to 0.000169 ± 0.019; in test [2], 0.000196 ± 0.032.

Turning to GGAGACCUUACUAUACAACCAACUACCACA, the results for the “pre-steady-state target cleavage rate” value in test [1] and in test [2] were 0.00377 ± 0.0038 and 0.00335 ± 0.005, respectively.

Turning to GGAGACCUAUGAUAACAACCAUACUACCUCA, the “pre-steady-state target cleavage rate” value in test [1] was found to be 0.000752 ± 0.0096; in test [2] it was 0.000244 ± 0.013.

Turning to GGAGACCUUACUAUACAACCUACUAGCCUCA, the “pre-steady-state target cleavage rate” value in test [1] was found to be 0.181 ± 0.018; in test [2] it was 0.00471 ± 0.0044.

For the sequence GGAGACCUUACUAUACAAGCUACAACCUCA, the “pre-steady-state target cleavage rate” value in test [1] came out at 0.239 ± 0.018; in test [2] it was 0.00109 ± 0.0031.

On to GGAGACCUAUGAUAAAAACCUACUACCUCA, for which the “pre-steady-state target cleavage rate” value in test [1] turned out to be 0.00102 ± 0.0064; in test [2] it was 0.000608 ± 0.01.

GGAGACCUAACUAUACAUCCUUCUACCUCA: the “pre-steady-state target cleavage rate” value in test [1] amounted to 0.0117 ± 0.0069; in test [2], 0.00277 ± 0.0046.

Consider GGAGACCUAUGAUAAGUACCUACUACCUCA, for which the “pre-steady-state target cleavage rate” value in test [1] was found to be 0.000199 ± 0.013; in test [2], 0.000478 ± 0.0053.

Regarding GGAGACCUUACUAUAGAACCUAGUACCUCA, the “pre-steady-state target cleavage rate” value in test [1] is 0.00154 ± 0.0026; in test [2], 0.00228 ± 0.0041.

GGAGACCUAACUAUACAACCUACUAGCACA: the “pre-steady-state target cleavage rate” value in test [1] was found to be 0.00779 ± 0.0065; in test [2] it was 0.00348 ± 0.0042.

Regarding GGAGACCUAUCUAUACAAGCUACUACCACA, the “pre-steady-state target cleavage rate” value in test [1] was 0.278 ± 0.019; in test [2] it was 0.00241 ± 0.0041.

In the case of GGAGAGGAUAGCUAUACAACCUACUACCUCA, the “pre-steady-state target cleavage rate” value in test [1] worked out at 0.035 ± 0.0046; in test [2], 0.0146 ± 0.0073.

For the sequence “GGAGACGAUACUAUACAACCUACUACCUCA [g2:g24:cont:t1A]”, the “pre-steady-state target cleavage rate” value was 0.21 ± 0.018 in test [1] and 0.0773 ± 0.024 in test [2].

In the case of GGAGACCUUACUAUACAACCAACUAGCUCA, the entries for the “pre-steady-state target cleavage rate” value in test [1] and in test [2] were 0.0021 ± 0.0029 and 0.0026 ± 0.0051, respectively.

With GGAGACCAUACUAUACAACCUACUACUCUCA, the “pre-steady-state target cleavage rate” value was 0.331 ± 0.028 in test [1] and 0.00773 ± 0.0036 in test [2].

GGAGAGGAUACUAUACAACCUUCUACCUGA: the “pre-steady-state target cleavage rate” value in test [1] stood at 0.00153 ± 0.0034; in test [2], 0.00393 ± 0.0023.

For GGAGACCAUACUAUACAACCGACUACCUCA, the entries for the “pre-steady-state target cleavage rate” value in test [1] and in test [2] were 0.00219 ± 0.0041 and 0.00248 ± 0.0025, respectively.

Take GGAGACCAUACUAUACAACCUAGUAGCUCA: the “pre-steady-state target cleavage rate” value in test [1] came to 0.000782 ± 0.011; in test [2], 0.00225 ± 0.0017.

As to GGAGACCAUAGUAUACAUCCUACUACCUCA, the “pre-steady-state target cleavage rate” value in test [1] was 0.19 ± 0.014; in test [2], 0.00617 ± 0.0032.

Regarding GGAGACCUUACUAUACAACCUACUUCGUCA, the figures for the “pre-steady-state target cleavage rate” value in test [1] and in test [2] were 0.0614 ± 0.015 and 0.00408 ± 0.0044, respectively.

GGAGACCUAUCUAUAGAACCUACUAGCUCA: the “pre-steady-state target cleavage rate” value in test [1] was determined as 0.00202 ± 0.0054; in test [2] it was 0.00103 ± 0.0085.

Consider GGAGACCUAUCUAUACAACCUAGCUACCUCA, for which the “pre-steady-state target cleavage rate” value was 0.0218 ± 0.0062 in test [1] and 0.00165 ± 0.0041 in test [2].

For the sequence GGAGAGGAUACUAUACAACCUUCUACGUCA, the “pre-steady-state target cleavage rate” value in test [1] worked out at 0.00117 ± 0.0051; in test [2], 0.00356 ± 0.0021.

In the case of GGAGACCUAUGAUAACUACCUAGUACCUCA, the “pre-steady-state target cleavage rate” value in test [1] was found to be 0.000174 ± 0.018; in test [2] it was 0.000253 ± 0.0078.

Regarding GGAGAGGAUUCUAUACAACCAACUACCUCA, the results for the “pre-steady-state target cleavage rate” value in test [1] and in test [2] were 0.00507 ± 0.0028 and 0.00361 ± 0.0027, respectively.

On to “GGAGAGGAUACUAUACAACCAUGAUGGAGA [g11:g25:cont:t1A]”, for which the “pre-steady-state target cleavage rate” value in test [1] stood at 0.00109 ± 0.0056; in test [2] it was 0.000805 ± 0.0046.

As to GGAGUGGAUACUAUACAACCUACUACAUCA, the “pre-steady-state target cleavage rate” value stood at 0.0416 ± 0.0072 in test [1] and 0.00707 ± 0.0031 in test [2].

For GGAGACGAUACAAUACAAGCUACUACCUCA, the figures for the “pre-steady-state target cleavage rate” value in test [1] and in test [2] were 0.236 ± 0.017 and 0.00185 ± 0.0026, respectively.

Consider GGAGACCAUACUAUACAAGCUACUAGCUCA, for which the figures for the “pre-steady-state target cleavage rate” value in test [1] and in test [2] were 0.0756 ± 0.022 and 0.00358 ± 0.0038, respectively.

In the case of GGAGUGGAUACUAUACAACCUACUACGAGA, the “pre-steady-state target cleavage rate” value came to 0.0112 ± 0.004 in test [1] and 0.00447 ± 0.0022 in test [2].

Turning to GGAGACCUUAGUAUACAUCCUACUACCUCA, the “pre-steady-state target cleavage rate” value in test [1] was 0.126 ± 0.018; in test [2], 0.0029 ± 0.0036.

Turning to GGAGACGAUACUAAACAAGCUACUACCUCA, the “pre-steady-state target cleavage rate” value in test [1] was 0.268 ± 0.016; in test [2] it was 0.00331 ± 0.0031.

In the case of GGAGACCUAUGAUUACAAGGAACUACCUCA, the results for the “pre-steady-state target cleavage rate” value in test [1] and in test [2] were 0.000142 ± 0.019 and 0.000365 ± 0.0083, respectively.

With GGAGAGGAUACUAUACUUGCUACUACCUCA, the results for the “pre-steady-state target cleavage rate” value in test [1] and in test [2] were 0.0407 ± 0.0049 and 0.00164 ± 0.0048, respectively.

For the sequence “GGAGACCUAUGUAUACAACCAUGAUGGAGA [g11:g19:cont:t1A]”, the “pre-steady-state target cleavage rate” value in test [1] was 0.000486 ± 0.0098; in test [2], 0.00131 ± 0.0058.
